Measurements from PubChem BioAssay AID248 (DTP/NCI, 2004).
The list does not hold the whole screen: it covers a few groups of compounds. Not every dose and run of a compound is shown. T/C gives the treated animals as a percentage of the vehicle group. Some entries give survivors of the animals treated and no T/C: the source files T/C as zero there, which appears to mark a toxic dose or a test without result, not a measured value. Some doses without a T/C left all or most animals alive at the check, yet need not have been tolerated: survival well below the control is almost never listed, so the zero probably covers shortened survival too. Survivors were counted at the toxicity check, usually on the fifth day, unless a day is given; later deaths do not show. Schedules are NCI's codes, read here as Q, the interval in days (D) or hours (H), X, the number of doses. Some metal complexes and salts are drawn in pieces, as in the source, so charges may not balance. Where survival is the endpoint, this PubChem deposit counts one and a half times the control or more as active, and values a quarter to a half above the control carry no call in these data; other NCI protocols may use other cut-offs. Some T/C values carry the count of animals alive at the toxicity check (mostly the fifth day); where neither a count nor a note follows, no animal had died by that day. Some entries were tested several times; their values stand side by side, smallest first. Some entries show no survivor count and are marked so; the dose need not have been tolerated.

System: L1210 leukemia ip in BDF1 mice, survival T/C
Test: NCI In Vivo Anticancer Drug Screen. Data for tumor model L1210 Leukemia (intraperitoneal) in B6D2F1 (BDF1) mice
Details: T/C endpoint: mean survival time, higher T/C = longer survival
[1] = dose: 100.0 mg/kg/injection, schedule: Q01DX009 (ip), vehicle: saline with Tween-80
[2] = dose: 200.0 mg/kg/injection, schedule: Q01DX009 (ip), vehicle: saline with Tween-80
[3] = dose: 100.0 mg/kg/injection, schedule: Q04DX002 (ip), vehicle: saline
[4] = dose: 200.0 mg/kg/injection, schedule: Q04DX002 (ip), vehicle: saline
[5] = dose: 100.0 mg/kg/injection, schedule: Q01DX001 (ip), vehicle: saline
[6] = dose: 200.0 mg/kg/injection, schedule: Q01DX001 (ip), vehicle: saline
[7] = dose: 400.0 mg/kg/injection, schedule: Q01DX001 (ip), vehicle: saline
[8] = dose: 50.0 mg/kg/injection, schedule: Q01DX009 (ip), vehicle: saline
[9] = dose: 100.0 mg/kg/injection, schedule: Q01DX009 (ip), vehicle: saline
[10] = dose: 200.0 mg/kg/injection, schedule: Q01DX009 (ip), vehicle: saline
[11] = dose: 100.0 mg/kg/injection, schedule: Q01DX001 (ip), vehicle: other
[12] = dose: 200.0 mg/kg/injection, schedule: Q01DX001 (ip), vehicle: other
[13] = dose: 400.0 mg/kg/injection, schedule: Q01DX001 (ip), vehicle: other
[14] = dose: 37.5 mg/kg/injection, schedule: Q01DX009 (ip), vehicle: saline
[15] = dose: 75.0 mg/kg/injection, schedule: Q01DX009 (ip), vehicle: saline

CC1CC[P+](c2ccccc2)(c2ccccc2)c2ccccc21.F[P-](F)(F)(F)(F)F (configuration not stated)
T/C (dose: 3.13 mg/kg/injection, schedule: Q01DX009 (ip), vehicle: saline with Tween-80): 107 % of control
T/C (dose: 6.25 mg/kg/injection, schedule: Q01DX009 (ip), vehicle: saline with Tween-80): 107 % of control
T/C (dose: 12.5 mg/kg/injection, schedule: Q01DX009 (ip), vehicle: saline with Tween-80): 103 and 107 % of control [2 of 3 alive]
T/C (dose: 25.0 mg/kg/injection, schedule: Q01DX009 (ip), vehicle: saline with Tween-80): 109 % of control
T/C (dose: 50.0 mg/kg/injection, schedule: Q01DX009 (ip), vehicle: saline with Tween-80): 103 and 111 % of control
T/C [1]: 93 % of control
survivor count [2]: 0 of 3

CCN(CCCl)CCOc1ccc(Cl)cc1
T/C (dose: 5.0 mg/kg/injection, schedule: Q04DX002 (ip), vehicle: saline): 89 % of control
T/C (dose: 10.0 mg/kg/injection, schedule: Q04DX002 (ip), vehicle: saline): 107 % of control
T/C (dose: 20.0 mg/kg/injection, schedule: Q04DX002 (ip), vehicle: saline): 97 and 100 % of control
survivor count (dose: 40.0 mg/kg/injection, schedule: Q04DX002 (ip), vehicle: saline): 2 of 3
survivor count (dose: 80.0 mg/kg/injection, schedule: Q04DX002 (ip), vehicle: saline): 0 of 3
survivor count [3]: 2 of 3
survivor count [4]: 0 of 3
survivor count (dose: 400.0 mg/kg/injection, schedule: Q04DX002 (ip), vehicle: saline): 0 of 3

COC(=O)C1(C)COP(=O)(Nc2ccccc2)OC1 (configuration not stated)
survivor count [5]: 4 of 4
T/C [6]: 96 % of control
survivor count [7]: 4 of 4

CC(C)CO[P+](=O)OCC(C)C
T/C (dose: 50.0 mg/kg/injection, schedule: Q01DX001 (ip), vehicle: saline): 105 % of control
T/C [8]: 92 % of control
T/C [5]: 108 % of control
T/C [9]: 105 % of control
T/C [6]: 105 % of control
T/C [10]: 92 % of control
survivor count [7]: 1 of 4

CP(=S)(N=[N+]=[N-])OC1CCCCC1 (configuration not stated)
T/C (dose: 0.19 mg/kg/injection, schedule: Q01DX009 (ip), vehicle: saline): 94 % of control [survivor count not shown]
T/C (dose: 0.39 mg/kg/injection, schedule: Q01DX009 (ip), vehicle: saline): 101 % of control [survivor count not shown]
T/C (dose: 0.78 mg/kg/injection, schedule: Q01DX009 (ip), vehicle: saline): 99 % of control [survivor count not shown]
T/C (dose: 1.56 mg/kg/injection, schedule: Q01DX009 (ip), vehicle: saline): 90 % of control [survivor count not shown]
T/C (dose: 6.25 mg/kg/injection, schedule: Q01DX009 (ip), vehicle: saline): 213 % of control [survivor count not shown]

CN(C)c1ccc(N=O)cc1.[C-]#N.[C-]#N.[C-]#N.[C-]#N.[C-]#N.[Fe+6]
T/C (dose: 12.5 mg/kg/injection, schedule: Q01DX009 (ip), vehicle: saline): 93 % of control
T/C (dose: 25.0 mg/kg/injection, schedule: Q01DX009 (ip), vehicle: saline): 93 % of control
T/C [8]: 95 % of control
survivor count [8]: 5 of 6
survivor count [9]: 2 of 6
T/C (dose: 100.0 mg/kg/injection, schedule: Q04DX003 (ip), vehicle: saline): 99 % of control
survivor count [10]: 0 of 6
T/C (dose: 200.0 mg/kg/injection, schedule: Q04DX003 (ip), vehicle: saline): 96 % of control
survivor count (dose: 400.0 mg/kg/injection, schedule: Q04DX003 (ip), vehicle: saline): 1 of 6

CCN(CC)P(=O)(OCCCC=O)N(CCCl)CCCl (configuration not stated)
T/C [11]: 90 % of control
T/C [12]: 95 % of control
survivor count [13]: 0 of 6

CN(C)Nc1c([N+](=O)[O-])cc([N+](=O)[O-])cc1[N+](=O)[O-]
T/C (dose: 100.0 mg/kg/injection, schedule: Q01DX009 (ip), vehicle: Klucel (hydroxypropylcellulose) (HPC)): 103 % of control [survivor count not shown]
T/C (dose: 100.0 mg/kg/injection, schedule: Q04DX003 (ip), vehicle: Klucel (hydroxypropylcellulose) (HPC)): 93 % of control [survivor count not shown]
T/C (dose: 200.0 mg/kg/injection, schedule: Q01DX009 (ip), vehicle: Klucel (hydroxypropylcellulose) (HPC)): 96 % of control [survivor count not shown]
T/C (dose: 200.0 mg/kg/injection, schedule: Q04DX003 (ip), vehicle: Klucel (hydroxypropylcellulose) (HPC)): 98 % of control [survivor count not shown]
T/C (dose: 400.0 mg/kg/injection, schedule: Q01DX009 (ip), vehicle: Klucel (hydroxypropylcellulose) (HPC)): 94 % of control [survivor count not shown]
T/C (dose: 400.0 mg/kg/injection, schedule: Q04DX003 (ip), vehicle: Klucel (hydroxypropylcellulose) (HPC)): 96 % of control [survivor count not shown]

OC1CN2CCC1CC2 (configuration not stated)
T/C [14]: 94 % of control [survivor count not shown]
T/C [15]: 91 % of control [survivor count not shown]
T/C [3]: 117 % of control [survivor count not shown]
T/C [4]: 103 % of control [survivor count not shown]

CCCc1c(CC)c(=O)[nH]c2ccccc12
T/C [11]: 101 % of control [survivor count not shown]
T/C [12]: 106 % of control [survivor count not shown]
T/C [13]: 104 % of control [survivor count not shown]

COC(=O)C(C(=O)OC)C1=NCC(I)CS1 (configuration not stated)
T/C [14]: 91 % of control
T/C (dose: 75.0 mg/kg/injection, schedule: Q01DX001 (ip), vehicle: saline): 97 % of control
T/C [15]: 93 % of control
T/C (dose: 75.0 mg/kg/injection, schedule: Q04DX003 (ip), vehicle: saline): 105 % of control
T/C (dose: 150.0 mg/kg/injection, schedule: Q01DX001 (ip), vehicle: saline): 97 % of control
T/C (dose: 150.0 mg/kg/injection, schedule: Q01DX009 (ip), vehicle: saline): 91 % of control [4 of 6 alive]
T/C (dose: 150.0 mg/kg/injection, schedule: Q04DX003 (ip), vehicle: saline): 103 % of control
T/C (dose: 300.0 mg/kg/injection, schedule: Q01DX001 (ip), vehicle: saline): 93 % of control [4 of 6 alive]
T/C (dose: 300.0 mg/kg/injection, schedule: Q04DX003 (ip), vehicle: saline): 96 % of control

N#Cc1[nH]cnc1/N=N\N(CCCl)CCCl
T/C (dose: 50.0 mg/kg/injection, schedule: Q04DX003 (ip), vehicle: other): 102 % of control
T/C [11]: 106 % of control
T/C [1]: 104 % of control
T/C (dose: 100.0 mg/kg/injection, schedule: Q04DX003 (ip), vehicle: other): 101 % of control
T/C [12]: 101 % of control
T/C [2]: 107 % of control
T/C (dose: 200.0 mg/kg/injection, schedule: Q04DX003 (ip), vehicle: other): 106 % of control
T/C [13]: 104 % of control
T/C (dose: 400.0 mg/kg/injection, schedule: Q01DX009 (ip), vehicle: saline with Tween-80): 104 % of control
T/C (dose: 400.0 mg/kg/injection, schedule: Q04DX003 (ip), vehicle: other): 108 % of control

CN=C(N=[N+]=[N-])NC#N
T/C (dose: 50.0 mg/kg/injection, schedule: Q04DX002 (ip), vehicle: Klucel (hydroxypropylcellulose) (HPC)): 93 % of control
T/C (dose: 100.0 mg/kg/injection, schedule: Q04DX002 (ip), vehicle: Klucel (hydroxypropylcellulose) (HPC)): 101 % of control
T/C (dose: 200.0 mg/kg/injection, schedule: Q04DX002 (ip), vehicle: Klucel (hydroxypropylcellulose) (HPC)): 93 % of control
